Measurements from US20180369326A1 (LA JOLLA INSTITUTE FOR ALLERGY AND IMMUNOLOGY, published 2018).
Results are given in words; binding and its absence hold for the method and conditions named. For some assays here: Binding seen in cells or lysates may run through a third protein. Some results given as binding are weak or reduced against the parent protein; the word gives no strength. For some assays here: Tags and fused reporters may be left off the sequences shown. Values belong to the molecule of their own block, whether it stands above or below them.

Amino acid sequences for entries named in this document (tags omitted). A change or cut given only in a name is not applied to a line headed by its entry. Residues count along the entry.
UniProt Q9Y6W8: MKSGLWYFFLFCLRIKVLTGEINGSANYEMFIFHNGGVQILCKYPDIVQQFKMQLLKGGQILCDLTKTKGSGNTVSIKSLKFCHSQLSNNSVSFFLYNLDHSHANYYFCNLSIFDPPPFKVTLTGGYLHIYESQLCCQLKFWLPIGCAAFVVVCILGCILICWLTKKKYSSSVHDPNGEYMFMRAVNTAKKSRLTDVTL
UniProt P27986, residues 2-724: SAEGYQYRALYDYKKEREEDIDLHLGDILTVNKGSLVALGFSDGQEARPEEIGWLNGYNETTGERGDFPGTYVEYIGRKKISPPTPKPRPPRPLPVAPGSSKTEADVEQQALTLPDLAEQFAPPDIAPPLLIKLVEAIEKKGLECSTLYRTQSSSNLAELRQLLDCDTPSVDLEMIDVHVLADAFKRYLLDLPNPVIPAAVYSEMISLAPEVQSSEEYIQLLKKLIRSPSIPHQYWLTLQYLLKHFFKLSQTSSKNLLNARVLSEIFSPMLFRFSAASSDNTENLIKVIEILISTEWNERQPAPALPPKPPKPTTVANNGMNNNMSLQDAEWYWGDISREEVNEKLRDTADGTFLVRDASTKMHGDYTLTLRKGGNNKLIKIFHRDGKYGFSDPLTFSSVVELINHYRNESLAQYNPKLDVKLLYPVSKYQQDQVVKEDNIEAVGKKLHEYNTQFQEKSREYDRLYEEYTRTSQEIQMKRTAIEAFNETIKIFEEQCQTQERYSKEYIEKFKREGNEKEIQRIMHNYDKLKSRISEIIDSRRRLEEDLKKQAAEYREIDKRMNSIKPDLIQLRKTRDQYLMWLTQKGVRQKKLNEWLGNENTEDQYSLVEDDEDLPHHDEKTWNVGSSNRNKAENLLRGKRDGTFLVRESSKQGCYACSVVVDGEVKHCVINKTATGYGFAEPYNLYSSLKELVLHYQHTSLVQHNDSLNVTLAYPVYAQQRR

Legend:
[1] = target: WT ICOS (wild-type inducible T-cell costimulator, transfected into Jurkat JTAg T cells) (Homo sapiens (Human)) (UniProt Q9Y6W8); assay: co-IP (anti-ICOS IP, immunoblot), transfected Jurkat cells; binding to WT ICOS is implied by its loss in YF (FIG. 2b, 2c)
[2] = target: WT ICOS (wild-type inducible T-cell costimulator, transfected into Jurkat JTAg T cells) (Homo sapiens (Human)) (UniProt Q9Y6W8); assay: SILAC proteomics of anti-ICOS IPs from Jurkat cells
[3] = target: T1, FLAG-tagged WT TRAF2 (Homo sapiens (Human)) (UniProt Q12933); assay: anti-FLAG IP and immunoblot, transfected HEK293T cells (FIG. 6d)
T1 sequence: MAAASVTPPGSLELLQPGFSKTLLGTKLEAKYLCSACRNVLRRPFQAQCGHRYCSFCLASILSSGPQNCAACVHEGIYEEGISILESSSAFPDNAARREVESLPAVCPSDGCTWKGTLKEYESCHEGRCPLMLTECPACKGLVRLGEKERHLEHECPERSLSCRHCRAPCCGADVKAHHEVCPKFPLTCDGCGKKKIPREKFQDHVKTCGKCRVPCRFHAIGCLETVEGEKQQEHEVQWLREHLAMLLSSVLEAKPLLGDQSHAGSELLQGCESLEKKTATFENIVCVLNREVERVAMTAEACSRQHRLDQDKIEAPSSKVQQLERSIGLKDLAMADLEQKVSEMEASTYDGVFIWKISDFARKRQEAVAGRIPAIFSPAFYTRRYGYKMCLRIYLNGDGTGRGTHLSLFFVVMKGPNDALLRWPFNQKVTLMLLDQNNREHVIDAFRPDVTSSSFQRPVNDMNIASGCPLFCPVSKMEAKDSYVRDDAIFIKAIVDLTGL

[4] = target: WT ICOS (wild-type inducible T-cell costimulator, transfected into Jurkat JTAg T cells) (Homo sapiens (Human)) (UniProt Q9Y6W8); assay: co-IP and immunoblot, transfected Jurkat cells (legend of FIG. 2b)
[5] = target: WT ICOS (wild-type inducible T-cell costimulator, transfected into Jurkat JTAg T cells) (Homo sapiens (Human)) (UniProt Q9Y6W8); assay: co-IP (anti-ICOS IP, immunoblot), transfected Jurkat cells stimulated with anti-CD3 plus anti-ICOS (FIG. 2b)

- binding [1]: binds
Molecule: p85α, the regulatory subunit of PI3K, endogenous, Jurkat cells (from UniProt P27986 2-724)

- binding [2]: binds
- binding [3]: binds
- binding [4]: binds
- binding [5]: binds
B1: TANK-binding kinase 1 (TBK1), endogenous, human cell lines (Jurkat JTAg, HEK293T) (enzyme, UniProt Q9UHD2 1-729, looked up)
chain: MQSTSNHLWLLSDILGQGATANVFRGRHKKTGDLFAIKVFNNISFLRPVDVQMREFEVLKKLNHKNIVKLFAIEEETTTRHKVLIMEFCPCGSLYTVLEEPSNAYGLPESEFLIVLRDVVGGMNHLRENGIVHRDIKPGNIMRVIGEDGQSVYKLTDFGAARELEDDEQFVSLYGTEEYLHPDMYERAVLRKDHQKKYGATVDLWSIGVTFYHAATGSLPFRPFEGPRRNKEVMYKIITGKPSGAISGVQKAENGPIDWSGDMPVSCSLSRGLQVLLTPVLANILEADQEKCWGFDQFFAETSDILHRMVIHVFSLQQMTAHKIYIHSYNTATIFHELVYKQTKIISSNQELIYEGRRLVLEPGRLAQHFPKTTEENPIFVVSREPLNTIGLIYEKISLPKVHPRYDLDGDASMAKAITGVVCYACRIASTLLLYQELMRKGIRWLIELIKDDYNETVHKKTEVVITLDFCIRNIEKTVKVYEKLMKINLEAAELGEISDIHTKLLRLSSSQGTIETSLQDIDSRLSPGGSLADAWAHQEGTHPKDRNVEKLQVLLNCMTEIYYQFKKDKAERRLAYNEEQIHKFDKQKLYYHATKAMTHFTDECVKKYEAFLNKSEEWIRKMLHLRKQLLSLTNQCFDIEEEVSKYQEYTNELQETLPQKMFTASSGIKHTMTPIYPSSNTLVEMTLGMKKLKEEMEGVVKELAENNHILERFGSLTMDGGLRNVDCL
notes: Species follows from the human cell lines; also called endogenous TBK1
